Drawing on PMC10484675, this text covers binding for 3 molecules.

Chains of the proteins cited; added tags and fusions are not shown.
UniProt Q08297: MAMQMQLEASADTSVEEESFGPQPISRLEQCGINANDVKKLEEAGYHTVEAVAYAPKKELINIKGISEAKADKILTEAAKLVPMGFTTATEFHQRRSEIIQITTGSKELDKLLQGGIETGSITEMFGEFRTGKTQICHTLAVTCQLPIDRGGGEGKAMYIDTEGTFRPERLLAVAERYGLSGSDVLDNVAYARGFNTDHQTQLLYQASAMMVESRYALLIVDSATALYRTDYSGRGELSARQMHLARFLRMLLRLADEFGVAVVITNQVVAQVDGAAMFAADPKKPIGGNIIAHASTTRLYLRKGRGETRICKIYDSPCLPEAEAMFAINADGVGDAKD

These are yes or no findings as the source states them, for the method shown. For part of these data: In cells and extracts the contact can be indirect. Some results given as binding are weak or reduced against the parent protein; the word gives no strength. For part of these data: Tags and fused reporters may be left off the sequences shown.

Experiment [1] deals with T1, MBP-FIGNL1 (not stated (human or mouse cDNA cloned)) (UniProt Q8BPY9).
T1 sequence: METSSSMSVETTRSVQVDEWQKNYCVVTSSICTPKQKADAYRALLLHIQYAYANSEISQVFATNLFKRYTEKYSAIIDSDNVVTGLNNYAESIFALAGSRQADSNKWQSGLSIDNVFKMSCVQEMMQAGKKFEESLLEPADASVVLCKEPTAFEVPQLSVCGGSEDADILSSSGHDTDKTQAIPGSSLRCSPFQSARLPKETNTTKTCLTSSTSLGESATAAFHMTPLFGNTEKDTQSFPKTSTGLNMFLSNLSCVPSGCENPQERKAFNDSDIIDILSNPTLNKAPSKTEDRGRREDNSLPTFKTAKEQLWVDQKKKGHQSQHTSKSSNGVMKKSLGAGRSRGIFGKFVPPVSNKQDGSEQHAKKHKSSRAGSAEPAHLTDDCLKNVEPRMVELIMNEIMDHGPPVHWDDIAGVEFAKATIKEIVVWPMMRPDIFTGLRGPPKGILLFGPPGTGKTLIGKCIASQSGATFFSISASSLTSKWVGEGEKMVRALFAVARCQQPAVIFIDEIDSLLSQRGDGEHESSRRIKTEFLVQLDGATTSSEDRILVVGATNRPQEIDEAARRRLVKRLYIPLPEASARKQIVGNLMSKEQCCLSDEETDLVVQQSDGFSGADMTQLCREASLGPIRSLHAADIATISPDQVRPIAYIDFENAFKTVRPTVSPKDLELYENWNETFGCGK
Put plainly: pull-down; in vitro GST pull-down: 0.05 μg GST or GST-FLIP on glutathione agarose beads with 0.1 μg MBP, MBP-FIGNL1 or MBP-RAD51 in 800 μl NETN buffer (20 mM Tris HCl pH 8.0, 100 mM NaCl, 1 mM EDTA, 0.5% Nonidet P-40), 4°C, 30 min; immunoblot; both purified. In general terms: Immunoblotting shows a protein as a band on a membrane.

For experiment [2], the target named is T2, FIGNL1 (endogenous, human HEK293T cells) (human (endogenous in HEK293T)) (UniProt Q6PIW4).
T2 sequence: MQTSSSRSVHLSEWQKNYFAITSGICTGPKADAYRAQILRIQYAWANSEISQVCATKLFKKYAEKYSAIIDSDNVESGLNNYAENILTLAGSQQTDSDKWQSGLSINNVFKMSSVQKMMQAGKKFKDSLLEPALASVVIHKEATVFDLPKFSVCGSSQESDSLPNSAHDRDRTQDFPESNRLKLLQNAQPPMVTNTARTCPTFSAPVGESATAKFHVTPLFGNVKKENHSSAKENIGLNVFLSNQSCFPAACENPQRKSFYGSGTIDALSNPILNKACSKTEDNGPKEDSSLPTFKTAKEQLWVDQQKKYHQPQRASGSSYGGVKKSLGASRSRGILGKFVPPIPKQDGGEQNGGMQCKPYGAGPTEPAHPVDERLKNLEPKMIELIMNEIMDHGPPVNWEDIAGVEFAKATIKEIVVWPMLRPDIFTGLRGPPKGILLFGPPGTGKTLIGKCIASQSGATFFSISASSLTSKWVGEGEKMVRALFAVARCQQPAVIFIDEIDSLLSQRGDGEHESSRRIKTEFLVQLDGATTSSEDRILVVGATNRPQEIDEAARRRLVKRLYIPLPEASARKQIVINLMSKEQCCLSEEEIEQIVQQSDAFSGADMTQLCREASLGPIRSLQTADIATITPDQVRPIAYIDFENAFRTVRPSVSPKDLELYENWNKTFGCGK
Put plainly: co-IP; endogenous proteins; HEK293T whole-cell lysates, mock treated or treated with 10 Gy or 4 mM HU for 3 h, immunoprecipitated with anti-FIGNL1 antibodies or control IgG, immunoblotted with anti-FLIP and anti-FIGNL1.

Experiment [3] has as its target RAD51 (mouse), N-terminally tagged (mouse) (UniProt Q08297). Kind of experiment: co-IP; 293T cells transiently transfected with N-terminally FLAG-, HA- or GFP-tagged mouse proteins, harvested after 24 h; lysis in 25 mM Tris-HCl pH 7.5, 300 mM NaCl, 1% Triton X-100, 1 mM DTT, 1 mM EDTA with sonication; antibody-conjugated agarose beads, 4°C, 4 h; Western blot. RAD51-FLIP co-precipitate strong with overexpressed FIGNL1, basal without exogenous FIGNL1.

For the molecule MBP-RAD51 (from UniProt Q08297 1-339), in experiment [1], the binding result is on record as “binds”.

B1: FLIP (endogenous, human HEK293T cells) (protein, UniProt Q9NSG2 1-853)
chain: MFLPHMNHLTLEQTFFSQVLPKTVKLFDDMMYELTSQARGLSSQNLEIQTTLRNILQTMVQLLGALTGCVQHICATQESIILENIQSLPSSVLHIIKSTFVHCKNSESVYSGCLHLVSDLLQALFKEAYSLQKQLMELLDMVCMDPLVDDNDDILNMVIVIHSLLDICSVISSMDHAFHANTWKFIIKQSLKHQSIIKSQLKHKDIITSLCEDILFSFHSCLQLAEQMTQSDAQDNADYRLFQKTLKLCRFFANSLLHYAKEFLPFLSDSCCTLHQLYLQIHSKFPPSLYATRISKAHQEEIAGAFLVTLDPLISQLLTFQPFMQVVLDSKLDLPCELQFPQCLLLVVVMDKLPSQPKEVQTLWCTDSQVSETTTRISLLKAVFYSFEQCSGELSLPVHLQGLKSKGKAEVAVTLYQHVCVHLCTFITSFHPSLFAELDAALLNAVLSANMITSLLAMDAWCFLARYGTAELCAHHVTIVAHLIKSCPGECYQLINLSILLKRLFFFMAPPHQLEFIQKFSPKEAENLPLWQHISFQALPPELREQTVHEVTTVGTAECRKWLSRSRTLGELESLNTVLSALLAVCNSAGEALDTGKQTAIIEVVSQLWAFLNIKQVADQPYVQQTFSLLLPLLGFFIQTLDPKLILQAVTLQTSLLKLELPDYVRLAMLDFVSSLGKLFIPEAIQDRILPNLSCMFALLLADRSWLLEQHTLEAFTQFAEGTNHEEIVPQCLSSEETKNKVVSFLEKTGFVDETEAAKVERVKQEKGIFWEPFANVTVEEAKRSSLQPYAKRARQEFPWEEEYRSALHTIAGALEATESLLQKGPAPAWLSMEMEALQERMDKLKRYIHTLG
Regarding B1, the binding result in experiment [2] is “binds”.

B2: FIGNL1 (mouse), N-terminally tagged (protein, UniProt Q8BPY9 1-683)
chain: T1 sequence
Regarding B2, the binding result in experiment [3] is “binds”.
